Results deposited as PubChem BioAssay AID504764 (Drosophila RNAi Screening Center, 2011)
Assay: 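Knock-downs that raise or lower a Notch target reporter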 (primary screen). System: Drosophila Kc167 cells. Reagent: long dsRNA against Drosophila genes. Duration: about 5 days (4 days dsRNA, then 24 h after transfection). Treatment: transfection of constitutively active membrane-tethered Notch lacking the extracellular domain, read 24 h later. Read-out: 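Light from a Notch-responsive E(spl)m3 luciferase reporter under active Notch, with control-promoter and no-Notch reporter wells to normalise; raw counts from paired wells a and b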. Scale: induced reporter light, run 1, well a and induced reporter light, run 1, well b: higher = more light from the Notch target reporter with active Notch; control promoter light, run 1, well a and control promoter light, run 1, well b: higher = more light from the viral control promoter (cell number, transfection, viability); uninduced reporter light, run 1, well a: higher = more light from the Notch target reporter without active Notch. Active means: 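Hit if the duplicate-averaged log2 ratio of induced to control-promoter light gives a plate-wise z beyond ±2, or induced to uninduced beyond ±1.8; weak-control or discordant-duplicate wells dropped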. Meaning of the calls: active = modifier hit (raised or lowered Notch signal); inactive = not a hit.
The deposit covers about 22,000 reagents; this is a random part of those that have a named target and a result. Of all reagents, 403 (1.9%) got an active call. 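Unnormalised raw counts per well; ratio z-scores behind the hit calls and whether each hit raises or lowers signal are not deposited.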 The record does not give: the amount of reagent.

no.	target	dsRNA	induced reporter light, run 1, well a	induced reporter light, run 1, well b	control promoter light, run 1, well a	control promoter light, run 1, well b	uninduced reporter light, run 1, well a	call
1	Hesr	DRSC19965	56495	55990	71710	77175	7270	inactive
2	RpS21	DRSC00833	91555	90685	1.37e5	1.29e5	5985	inactive
3	CG17258	DRSC00495	2.44e5	2.20e5	3.28e5	2.72e5	11480	inactive
4	CG42597	DRSC03681	1.11e5	1.24e5	1.16e5	92465	11575	inactive
5	if	DRSC20341	1.11e5	90330	1.49e5	1.02e5	11895	inactive
6	CG4161	DRSC01930	1.24e5	1.45e5	1.35e5	1.67e5	9210	inactive
7	ric8a	DRSC18093	2.06e5	1.83e5	2.54e5	2.77e5	13730	inactive
8	CG7115	DRSC02000	1.22e5	1.48e5	76515	81890	22325	inactive
9	CG33263	DRSC10108	1.23e5	1.08e5	1.56e5	1.44e5	12415	inactive
10	CG12375	DRSC02163	73070	86885	70725	75605	6705	inactive
11	CG12862	DRSC06202	94595	74655	1.06e5	1.15e5	8560	inactive
12	CG2871	DRSC18230	1.44e5	1.55e5	2.78e5	2.67e5	11745	inactive
13	CG2871	DRSC21719						inactive
14	mura	DRSC16483	72260	85645	1.00e5	66230	5025	inactive
15	mura	DRSC16484	85480	91495	71995	54595	5490	inactive
16	CG14151	DRSC10153	2.15e5	2.35e5	3.17e5	2.31e5	12200	inactive
17	Ddrgk1	DRSC15897	1.63e5	1.77e5	2.32e5	2.68e5	16005	inactive
18	CG32198	DRSC09553	1.50e5	1.51e5	1.83e5	1.62e5	16525	inactive
19	CG4259	DRSC00645	1.01e5	1.03e5	1.06e5	64125	9385	inactive
20	IntS14	DRSC00668	1.94e5	1.90e5	1.92e5	1.98e5	15990	inactive
21	hth	DRSC16967	60000	60480	49120	41340	4130	inactive
22	CG15649	DRSC04240	40550	40845	34950	35260	1788	inactive
23	CG4830	DRSC15657	72395	94915	84975	80725	3890	inactive
24	RpL30	DRSC02087	20245	17720	40990	26020	1290	inactive
25	AGO3	DRSC21386						inactive
26	snRNA:U1:95Cc	DRSC13640	21055	22382	12455	12145	4270	inactive
27	l(1)G0320	DRSC18255	1.63e5	1.62e5	2.01e5	1.90e5	15975	inactive
28	ps	DRSC15149	88520	90650	89045	56915	3725	inactive
29	ps	DRSC15151	1.42e5	1.43e5	1.23e5	97035	8520	inactive
30	ps	DRSC15152	67445	80255	64330	47135	3560	inactive
31	ps	DRSC16388	89855	1.29e5	1.41e5	98735	9255	inactive
32	CG15406	DRSC00420	85685	84770	83895	75995	4945	inactive
33	PlexB	DRSC17177	1.24e5	1.06e5	2.23e5	2.28e5	8615	inactive
34	CG12384	DRSC06145	2.28e5	2.51e5	2.41e5	2.64e5	18605	inactive
